In the supplement of paper PMC12823440, “Inhibitors supercharge kinase turnover through native proteolytic circuits” (Nature, 2025):
Where a name gives a salt, the structure may show the parent alone. Some of the results follow. The calls rarely recur for the same compound in another form.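 Kinases, fused to nanoluciferase, were expressed in K562 cells; luminescence was measured every 4 h from 2 to 18 h as percent of control (DMSO = 100%, positive control = 0%). A time point is decreased if signal falls significantly (2 sigma). Hits were called by the authors by a rule that is not shown; the count of time points alone does not decide it.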

Chains of the proteins cited; added tags and fusions are not shown. Lines headed by an entry give the natural chain unless they say otherwise; changes in a name come on top.
UniProt P07949, whole entry, looked up: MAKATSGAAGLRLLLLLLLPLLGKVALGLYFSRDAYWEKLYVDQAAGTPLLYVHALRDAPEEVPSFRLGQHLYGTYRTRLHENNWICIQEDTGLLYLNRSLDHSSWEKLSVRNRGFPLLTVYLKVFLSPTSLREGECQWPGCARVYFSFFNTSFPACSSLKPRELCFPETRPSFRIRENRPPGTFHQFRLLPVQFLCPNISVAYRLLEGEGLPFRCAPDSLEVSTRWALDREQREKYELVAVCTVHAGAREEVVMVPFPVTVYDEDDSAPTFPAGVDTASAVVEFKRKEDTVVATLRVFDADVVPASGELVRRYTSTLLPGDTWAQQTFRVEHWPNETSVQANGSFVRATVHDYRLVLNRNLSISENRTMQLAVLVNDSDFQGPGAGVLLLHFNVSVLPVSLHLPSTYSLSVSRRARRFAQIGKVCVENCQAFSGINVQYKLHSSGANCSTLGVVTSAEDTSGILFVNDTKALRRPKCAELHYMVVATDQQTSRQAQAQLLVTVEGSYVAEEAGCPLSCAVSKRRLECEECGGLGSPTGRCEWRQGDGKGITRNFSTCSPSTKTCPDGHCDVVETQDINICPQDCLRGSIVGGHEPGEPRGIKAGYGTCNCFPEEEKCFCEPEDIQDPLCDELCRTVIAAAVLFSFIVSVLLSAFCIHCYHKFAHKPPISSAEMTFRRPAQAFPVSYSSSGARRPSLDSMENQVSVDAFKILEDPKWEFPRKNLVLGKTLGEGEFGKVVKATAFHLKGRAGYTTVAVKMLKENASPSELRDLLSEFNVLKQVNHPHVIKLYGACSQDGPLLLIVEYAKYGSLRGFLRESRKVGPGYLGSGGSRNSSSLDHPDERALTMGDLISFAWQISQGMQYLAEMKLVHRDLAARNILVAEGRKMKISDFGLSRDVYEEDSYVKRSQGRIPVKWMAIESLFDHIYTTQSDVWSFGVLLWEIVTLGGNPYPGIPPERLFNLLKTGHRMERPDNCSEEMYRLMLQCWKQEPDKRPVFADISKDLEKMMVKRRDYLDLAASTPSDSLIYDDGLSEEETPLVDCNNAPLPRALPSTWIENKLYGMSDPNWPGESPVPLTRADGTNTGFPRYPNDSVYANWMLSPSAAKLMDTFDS
UniProt P07949, whole entry M918T, looked up: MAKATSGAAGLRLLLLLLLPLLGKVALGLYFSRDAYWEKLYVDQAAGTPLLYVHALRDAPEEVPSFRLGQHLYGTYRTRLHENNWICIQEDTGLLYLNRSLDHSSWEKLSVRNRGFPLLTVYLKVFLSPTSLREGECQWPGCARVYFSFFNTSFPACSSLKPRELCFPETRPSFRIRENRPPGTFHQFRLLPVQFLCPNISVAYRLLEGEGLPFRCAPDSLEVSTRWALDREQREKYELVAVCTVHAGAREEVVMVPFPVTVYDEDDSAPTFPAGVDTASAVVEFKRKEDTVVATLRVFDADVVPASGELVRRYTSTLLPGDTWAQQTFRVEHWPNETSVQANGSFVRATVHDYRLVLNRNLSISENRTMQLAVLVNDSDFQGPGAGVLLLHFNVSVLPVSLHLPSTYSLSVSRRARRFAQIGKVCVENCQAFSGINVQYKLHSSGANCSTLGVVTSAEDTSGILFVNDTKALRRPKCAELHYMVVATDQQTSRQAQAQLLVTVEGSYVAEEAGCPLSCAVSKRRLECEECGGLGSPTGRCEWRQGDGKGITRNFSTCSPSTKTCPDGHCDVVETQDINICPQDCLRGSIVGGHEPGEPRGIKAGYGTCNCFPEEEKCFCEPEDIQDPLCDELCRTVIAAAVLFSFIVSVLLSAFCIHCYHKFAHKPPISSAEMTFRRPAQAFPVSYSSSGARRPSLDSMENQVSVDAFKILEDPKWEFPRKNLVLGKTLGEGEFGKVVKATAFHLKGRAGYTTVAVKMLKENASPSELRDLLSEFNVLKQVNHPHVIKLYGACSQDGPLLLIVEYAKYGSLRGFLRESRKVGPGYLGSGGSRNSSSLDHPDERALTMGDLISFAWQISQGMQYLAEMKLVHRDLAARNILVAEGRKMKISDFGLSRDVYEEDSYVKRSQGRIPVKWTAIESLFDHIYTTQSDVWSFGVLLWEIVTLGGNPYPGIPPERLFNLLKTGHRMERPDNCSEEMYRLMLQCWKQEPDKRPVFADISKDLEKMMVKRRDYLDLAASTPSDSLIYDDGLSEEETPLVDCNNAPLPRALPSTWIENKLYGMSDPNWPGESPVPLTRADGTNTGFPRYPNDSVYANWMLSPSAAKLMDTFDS
UniProt Q13546: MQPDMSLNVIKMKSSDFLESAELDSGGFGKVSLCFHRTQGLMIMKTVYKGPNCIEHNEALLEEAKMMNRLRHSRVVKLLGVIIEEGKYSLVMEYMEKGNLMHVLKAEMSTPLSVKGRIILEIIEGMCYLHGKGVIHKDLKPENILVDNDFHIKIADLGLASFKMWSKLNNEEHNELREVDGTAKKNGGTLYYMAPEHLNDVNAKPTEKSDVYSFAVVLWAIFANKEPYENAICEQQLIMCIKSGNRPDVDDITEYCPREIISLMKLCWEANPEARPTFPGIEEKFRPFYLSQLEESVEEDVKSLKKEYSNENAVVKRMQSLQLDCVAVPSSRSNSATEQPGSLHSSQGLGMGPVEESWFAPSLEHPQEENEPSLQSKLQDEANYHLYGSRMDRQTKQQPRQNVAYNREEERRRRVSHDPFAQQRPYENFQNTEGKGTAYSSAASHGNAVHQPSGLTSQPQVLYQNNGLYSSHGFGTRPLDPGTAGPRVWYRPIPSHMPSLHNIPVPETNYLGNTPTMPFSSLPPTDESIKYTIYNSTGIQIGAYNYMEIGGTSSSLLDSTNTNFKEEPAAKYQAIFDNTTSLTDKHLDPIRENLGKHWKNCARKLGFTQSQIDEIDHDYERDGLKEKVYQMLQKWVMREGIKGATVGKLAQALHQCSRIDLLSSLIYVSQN
UniProt Q01974, whole entry: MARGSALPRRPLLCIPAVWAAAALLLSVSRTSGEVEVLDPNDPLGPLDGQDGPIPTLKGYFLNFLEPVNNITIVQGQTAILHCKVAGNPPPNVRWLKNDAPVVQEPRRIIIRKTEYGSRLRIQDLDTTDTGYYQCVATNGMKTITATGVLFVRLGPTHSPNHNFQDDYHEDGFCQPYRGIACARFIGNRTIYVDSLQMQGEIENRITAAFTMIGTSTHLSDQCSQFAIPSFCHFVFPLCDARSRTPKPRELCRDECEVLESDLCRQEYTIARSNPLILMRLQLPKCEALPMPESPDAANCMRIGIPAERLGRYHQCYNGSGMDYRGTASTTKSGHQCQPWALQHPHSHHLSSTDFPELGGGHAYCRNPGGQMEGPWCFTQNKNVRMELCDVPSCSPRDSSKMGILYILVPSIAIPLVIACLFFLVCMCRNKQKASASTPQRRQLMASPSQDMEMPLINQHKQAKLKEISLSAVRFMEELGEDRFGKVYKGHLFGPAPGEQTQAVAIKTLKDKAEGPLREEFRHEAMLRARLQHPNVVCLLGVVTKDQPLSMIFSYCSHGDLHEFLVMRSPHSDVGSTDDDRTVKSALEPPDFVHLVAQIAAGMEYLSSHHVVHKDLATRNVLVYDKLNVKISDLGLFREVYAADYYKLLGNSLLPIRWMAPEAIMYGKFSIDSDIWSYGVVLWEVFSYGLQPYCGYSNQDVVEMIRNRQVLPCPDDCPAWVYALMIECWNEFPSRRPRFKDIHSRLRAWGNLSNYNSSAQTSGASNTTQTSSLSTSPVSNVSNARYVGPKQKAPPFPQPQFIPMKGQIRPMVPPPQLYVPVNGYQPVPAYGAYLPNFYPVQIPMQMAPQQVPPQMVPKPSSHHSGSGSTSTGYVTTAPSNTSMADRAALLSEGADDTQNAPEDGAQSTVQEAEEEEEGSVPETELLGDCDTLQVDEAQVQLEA
UniProt Q15418, whole entry: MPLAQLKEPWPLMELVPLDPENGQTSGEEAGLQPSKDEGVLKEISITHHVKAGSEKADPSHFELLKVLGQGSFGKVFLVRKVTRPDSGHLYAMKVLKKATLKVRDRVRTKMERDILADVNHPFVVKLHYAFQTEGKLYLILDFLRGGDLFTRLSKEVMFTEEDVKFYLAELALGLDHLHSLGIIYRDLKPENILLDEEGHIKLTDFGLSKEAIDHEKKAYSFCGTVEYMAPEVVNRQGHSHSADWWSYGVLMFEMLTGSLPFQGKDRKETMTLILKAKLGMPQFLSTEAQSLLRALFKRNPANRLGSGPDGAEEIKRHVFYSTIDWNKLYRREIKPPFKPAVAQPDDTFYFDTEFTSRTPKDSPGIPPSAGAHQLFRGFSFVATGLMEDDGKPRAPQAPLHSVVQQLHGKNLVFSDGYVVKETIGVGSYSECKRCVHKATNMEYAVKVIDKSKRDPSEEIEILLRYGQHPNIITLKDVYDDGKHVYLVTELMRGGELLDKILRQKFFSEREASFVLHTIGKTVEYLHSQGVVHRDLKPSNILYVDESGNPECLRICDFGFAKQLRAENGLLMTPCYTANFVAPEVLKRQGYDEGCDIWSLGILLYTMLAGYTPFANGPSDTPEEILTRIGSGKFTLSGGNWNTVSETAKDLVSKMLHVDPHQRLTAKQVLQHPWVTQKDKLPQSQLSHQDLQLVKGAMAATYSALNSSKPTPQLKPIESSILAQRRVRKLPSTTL
UniProt Q9Y6E0: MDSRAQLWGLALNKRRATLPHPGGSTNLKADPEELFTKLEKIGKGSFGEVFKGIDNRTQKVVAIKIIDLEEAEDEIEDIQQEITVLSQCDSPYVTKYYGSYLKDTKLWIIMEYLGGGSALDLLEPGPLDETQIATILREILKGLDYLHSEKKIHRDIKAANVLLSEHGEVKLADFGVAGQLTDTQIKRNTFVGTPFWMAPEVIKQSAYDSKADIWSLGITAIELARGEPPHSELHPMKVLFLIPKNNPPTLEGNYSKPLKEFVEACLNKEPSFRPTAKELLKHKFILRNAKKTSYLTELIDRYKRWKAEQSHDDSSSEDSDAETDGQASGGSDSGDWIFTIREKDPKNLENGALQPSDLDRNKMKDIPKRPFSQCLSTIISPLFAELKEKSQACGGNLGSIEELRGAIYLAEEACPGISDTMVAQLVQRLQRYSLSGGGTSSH
UniProt Q15208: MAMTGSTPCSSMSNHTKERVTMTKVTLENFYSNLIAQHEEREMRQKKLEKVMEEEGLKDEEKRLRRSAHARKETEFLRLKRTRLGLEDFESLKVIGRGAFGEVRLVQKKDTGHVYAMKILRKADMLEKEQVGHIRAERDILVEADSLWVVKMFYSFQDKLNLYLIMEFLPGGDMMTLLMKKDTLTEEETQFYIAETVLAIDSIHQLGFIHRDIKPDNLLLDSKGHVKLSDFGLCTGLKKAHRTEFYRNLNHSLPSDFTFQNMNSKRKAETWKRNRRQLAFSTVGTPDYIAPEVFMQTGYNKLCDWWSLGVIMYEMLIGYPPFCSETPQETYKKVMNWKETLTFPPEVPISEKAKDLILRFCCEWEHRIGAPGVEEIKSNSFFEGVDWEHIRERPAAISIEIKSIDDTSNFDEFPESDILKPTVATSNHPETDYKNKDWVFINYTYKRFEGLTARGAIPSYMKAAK
UniProt P42680: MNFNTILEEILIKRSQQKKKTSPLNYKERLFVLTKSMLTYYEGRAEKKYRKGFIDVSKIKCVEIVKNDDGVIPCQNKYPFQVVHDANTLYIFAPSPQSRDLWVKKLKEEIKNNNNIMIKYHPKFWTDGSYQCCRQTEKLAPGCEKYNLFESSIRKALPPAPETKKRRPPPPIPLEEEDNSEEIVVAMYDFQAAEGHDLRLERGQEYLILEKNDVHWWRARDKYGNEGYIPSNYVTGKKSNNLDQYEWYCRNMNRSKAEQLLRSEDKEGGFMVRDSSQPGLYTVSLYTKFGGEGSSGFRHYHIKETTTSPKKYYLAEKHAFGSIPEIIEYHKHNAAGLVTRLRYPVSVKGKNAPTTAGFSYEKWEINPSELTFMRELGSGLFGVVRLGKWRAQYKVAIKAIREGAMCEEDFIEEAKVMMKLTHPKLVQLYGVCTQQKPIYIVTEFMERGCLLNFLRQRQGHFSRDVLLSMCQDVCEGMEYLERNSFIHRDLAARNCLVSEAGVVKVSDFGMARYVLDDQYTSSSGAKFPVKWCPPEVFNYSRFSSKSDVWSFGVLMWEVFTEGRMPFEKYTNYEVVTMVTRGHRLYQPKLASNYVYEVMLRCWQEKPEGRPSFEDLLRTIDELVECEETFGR
UniProt Q6PHR2: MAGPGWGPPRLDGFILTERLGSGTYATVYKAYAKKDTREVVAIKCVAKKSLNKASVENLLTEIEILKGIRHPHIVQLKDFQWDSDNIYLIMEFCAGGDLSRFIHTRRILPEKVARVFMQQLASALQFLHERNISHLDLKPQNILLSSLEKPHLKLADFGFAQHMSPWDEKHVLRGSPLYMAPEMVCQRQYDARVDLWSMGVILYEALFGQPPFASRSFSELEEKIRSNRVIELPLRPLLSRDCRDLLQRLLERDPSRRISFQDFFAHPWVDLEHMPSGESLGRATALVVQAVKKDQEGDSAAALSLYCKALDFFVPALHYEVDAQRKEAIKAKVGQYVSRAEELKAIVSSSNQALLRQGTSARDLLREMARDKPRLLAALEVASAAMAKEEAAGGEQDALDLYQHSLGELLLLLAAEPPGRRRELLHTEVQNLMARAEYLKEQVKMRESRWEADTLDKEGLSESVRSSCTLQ

Legend:
Settings in all cases: K562; 2-18 h
RET = RET (UniProt P07949); experiment: kinase-Nluc reporter destabilization hit call (1 = scored as downregulated) (binary); higher = compound decreases kinase abundance
[1] = target: RET_M918T (clone: RET_mut) (UniProt P07949); experiment: as above
RIOK1 = RIOK1 (UniProt Q9BRS2); experiment: as above
RIPK1 = RIPK1 (UniProt Q13546); experiment: as above
RIPK2 = RIPK2 (UniProt O43353); experiment: as above
ROR2 = ROR2 (UniProt Q01974); experiment: as above
RPS6KA1 = RPS6KA1 (UniProt Q15418); experiment: as above
SPHK1 = SPHK1 (UniProt Q9NYA1); experiment: as above
SRC = SRC (UniProt P12931); experiment: as above
STK24 = STK24 (UniProt Q9Y6E0); experiment: as above
STK38 = STK38 (UniProt Q15208); experiment: as above
SYK = SYK (UniProt P43405); experiment: as above
TEC = TEC (UniProt P42680); experiment: as above
TYK2 = TYK2 (UniProt P29597); experiment: as above
ULK3 = ULK3 (UniProt Q6PHR2); experiment: as above
YES1 = YES1 (UniProt P07947); experiment: as above
ZAK = ZAK (UniProt Q9NYL2); experiment: as above
ZAP70 = ZAP70 (UniProt P43403); experiment: as above
ABL1 = ABL1 (UniProt P00519); experiment: number of time points (of 5) at which kinase-Nluc abundance scored as decreased, DMSO-normalised (count); higher = more persistent destabilization
AKT1 = AKT1 (UniProt P31749); experiment: as above

CCN1CCN(c2ccc(Nc3cc(N(C)C(=O)Nc4c(Cl)c(OC)cc(OC)c4Cl)ncn3)cc2)CC1 [Infigratinib] (10 µM)
inactive: kinase-Nluc reporter destabilization hit call (RET) 0 | kinase-Nluc reporter destabilization hit call [1] 0 | kinase-Nluc reporter destabilization hit call (RIOK1) 0 | kinase-Nluc reporter destabilization hit call (RIPK1) 0 | kinase-Nluc reporter destabilization hit call (RIPK2) 0 | kinase-Nluc reporter destabilization hit call (ROR2) 0 | kinase-Nluc reporter destabilization hit call (RPS6KA1) 0 | kinase-Nluc reporter destabilization hit call (SPHK1) 0 | kinase-Nluc reporter destabilization hit call (SRC) 0 | kinase-Nluc reporter destabilization hit call (STK24) 0 | kinase-Nluc reporter destabilization hit call (STK38) 0 | kinase-Nluc reporter destabilization hit call (SYK) 0 | kinase-Nluc reporter destabilization hit call (TEC) 0 | kinase-Nluc reporter destabilization hit call (TYK2) 0 | kinase-Nluc reporter destabilization hit call (ULK3) 0 | kinase-Nluc reporter destabilization hit call (YES1) 0 | kinase-Nluc reporter destabilization hit call (ZAK) 0 | kinase-Nluc reporter destabilization hit call (ZAP70) 0
0: number of time points (ABL1) | number of time points (AKT1)

O=c1cc(-c2ccccc2)oc2c(O)c(O)ccc12 [7,8-Dihydroxyflavone] (10 µM)
inactive: kinase-Nluc reporter destabilization hit call (RET) 0 | kinase-Nluc reporter destabilization hit call [1] 0 | kinase-Nluc reporter destabilization hit call (RIOK1) 0 | kinase-Nluc reporter destabilization hit call (RIPK1) 0 | kinase-Nluc reporter destabilization hit call (RIPK2) 0 | kinase-Nluc reporter destabilization hit call (ROR2) 0 | kinase-Nluc reporter destabilization hit call (RPS6KA1) 0 | kinase-Nluc reporter destabilization hit call (SPHK1) 0 | kinase-Nluc reporter destabilization hit call (SRC) 0 | kinase-Nluc reporter destabilization hit call (STK24) 0 | kinase-Nluc reporter destabilization hit call (STK38) 0 | kinase-Nluc reporter destabilization hit call (SYK) 0 | kinase-Nluc reporter destabilization hit call (TEC) 0 | kinase-Nluc reporter destabilization hit call (TYK2) 0 | kinase-Nluc reporter destabilization hit call (ULK3) 0 | kinase-Nluc reporter destabilization hit call (YES1) 0 | kinase-Nluc reporter destabilization hit call (ZAK) 0 | kinase-Nluc reporter destabilization hit call (ZAP70) 0
0: number of time points (ABL1) | number of time points (AKT1)

COC(=O)c1ccc2c(C(=Nc3ccc(N(C)C(=O)CN4CCN(C)CC4)cc3)c3ccccc3)c(O)[nH]c2c1 [Nintedanib] (2.5 µM)
0: number of time points (ABL1) | number of time points (AKT1)
inactive: kinase-Nluc reporter destabilization hit call (RET) 0 | kinase-Nluc reporter destabilization hit call [1] 0 | kinase-Nluc reporter destabilization hit call (RIOK1) 0 | kinase-Nluc reporter destabilization hit call (RIPK1) 0 | kinase-Nluc reporter destabilization hit call (RIPK2) 0 | kinase-Nluc reporter destabilization hit call (ROR2) 0 | kinase-Nluc reporter destabilization hit call (RPS6KA1) 0 | kinase-Nluc reporter destabilization hit call (SPHK1) 0 | kinase-Nluc reporter destabilization hit call (SRC) 0 | kinase-Nluc reporter destabilization hit call (STK24) 0 | kinase-Nluc reporter destabilization hit call (STK38) 0 | kinase-Nluc reporter destabilization hit call (SYK) 0 | kinase-Nluc reporter destabilization hit call (TEC) 0 | kinase-Nluc reporter destabilization hit call (TYK2) 0 | kinase-Nluc reporter destabilization hit call (ULK3) 0 | kinase-Nluc reporter destabilization hit call (YES1) 0 | kinase-Nluc reporter destabilization hit call (ZAK) 0 | kinase-Nluc reporter destabilization hit call (ZAP70) 0

COc1cc2nc(C)nc(N[C@H](C)c3cc(N)cc(C(F)(F)F)c3)c2cc1O[C@H]1CCOC1 (10 µM)
2: number of time points (ABL1)
inactive: kinase-Nluc reporter destabilization hit call (RET) 0 | kinase-Nluc reporter destabilization hit call [1] 0 | kinase-Nluc reporter destabilization hit call (RIOK1) 0 | kinase-Nluc reporter destabilization hit call (RIPK1) 0 | kinase-Nluc reporter destabilization hit call (RIPK2) 0 | kinase-Nluc reporter destabilization hit call (ROR2) 0 | kinase-Nluc reporter destabilization hit call (RPS6KA1) 0 | kinase-Nluc reporter destabilization hit call (SPHK1) 0 | kinase-Nluc reporter destabilization hit call (SRC) 0 | kinase-Nluc reporter destabilization hit call (STK24) 0 | kinase-Nluc reporter destabilization hit call (STK38) 0 | kinase-Nluc reporter destabilization hit call (SYK) 0 | kinase-Nluc reporter destabilization hit call (TEC) 0 | kinase-Nluc reporter destabilization hit call (TYK2) 0 | kinase-Nluc reporter destabilization hit call (ULK3) 0 | kinase-Nluc reporter destabilization hit call (YES1) 0 | kinase-Nluc reporter destabilization hit call (ZAK) 0 | kinase-Nluc reporter destabilization hit call (ZAP70) 0
0: number of time points (AKT1)

CC(C)(/C=C(\C#N)C(=O)N1CCC[C@@H](n2nc(-c3ccc(Oc4ccccc4)cc3F)c3c(N)ncnc32)C1)N1CCN(C2COC2)CC1 (2.5 µM)
inactive: kinase-Nluc reporter destabilization hit call (RET) 0 | kinase-Nluc reporter destabilization hit call [1] 0 | kinase-Nluc reporter destabilization hit call (RIOK1) 0 | kinase-Nluc reporter destabilization hit call (RIPK1) 0 | kinase-Nluc reporter destabilization hit call (RIPK2) 0 | kinase-Nluc reporter destabilization hit call (ROR2) 0 | kinase-Nluc reporter destabilization hit call (RPS6KA1) 0 | kinase-Nluc reporter destabilization hit call (SPHK1) 0 | kinase-Nluc reporter destabilization hit call (SRC) 0 | kinase-Nluc reporter destabilization hit call (STK24) 0 | kinase-Nluc reporter destabilization hit call (STK38) 0 | kinase-Nluc reporter destabilization hit call (SYK) 0 | kinase-Nluc reporter destabilization hit call (TEC) 0 | kinase-Nluc reporter destabilization hit call (TYK2) 0 | kinase-Nluc reporter destabilization hit call (ULK3) 0 | kinase-Nluc reporter destabilization hit call (YES1) 0 | kinase-Nluc reporter destabilization hit call (ZAK) 0 | kinase-Nluc reporter destabilization hit call (ZAP70) 0
0: number of time points (ABL1) | number of time points (AKT1)

CC(=O)N1CCN(c2ccc(OCC3COC(Cn4ccnc4)(c4ccc(Cl)cc4Cl)O3)cc2)CC1 (stereo not given) [Ketoconazole] (2.5 µM)
inactive: kinase-Nluc reporter destabilization hit call (RET) 0 | kinase-Nluc reporter destabilization hit call [1] 0 | kinase-Nluc reporter destabilization hit call (RIOK1) 0 | kinase-Nluc reporter destabilization hit call (RIPK1) 0 | kinase-Nluc reporter destabilization hit call (RIPK2) 0 | kinase-Nluc reporter destabilization hit call (ROR2) 0 | kinase-Nluc reporter destabilization hit call (RPS6KA1) 0 | kinase-Nluc reporter destabilization hit call (SPHK1) 0 | kinase-Nluc reporter destabilization hit call (SRC) 0 | kinase-Nluc reporter destabilization hit call (STK24) 0 | kinase-Nluc reporter destabilization hit call (STK38) 0 | kinase-Nluc reporter destabilization hit call (SYK) 0 | kinase-Nluc reporter destabilization hit call (TEC) 0 | kinase-Nluc reporter destabilization hit call (TYK2) 0 | kinase-Nluc reporter destabilization hit call (ULK3) 0 | kinase-Nluc reporter destabilization hit call (YES1) 0 | kinase-Nluc reporter destabilization hit call (ZAK) 0 | kinase-Nluc reporter destabilization hit call (ZAP70) 0
0: number of time points (ABL1) | number of time points (AKT1)

CNC(=O)c1cccc2cc(Oc3ccnc4cc(OCC5(N)CC5)c(OC)cc34)ccc12 [Lucitanib] (10 µM)
inactive: kinase-Nluc reporter destabilization hit call (RET) 0 | kinase-Nluc reporter destabilization hit call [1] 0 | kinase-Nluc reporter destabilization hit call (RIOK1) 0 | kinase-Nluc reporter destabilization hit call (RIPK1) 0 | kinase-Nluc reporter destabilization hit call (RIPK2) 0 | kinase-Nluc reporter destabilization hit call (ROR2) 0 | kinase-Nluc reporter destabilization hit call (RPS6KA1) 0 | kinase-Nluc reporter destabilization hit call (SPHK1) 0 | kinase-Nluc reporter destabilization hit call (SRC) 0 | kinase-Nluc reporter destabilization hit call (STK24) 0 | kinase-Nluc reporter destabilization hit call (STK38) 0 | kinase-Nluc reporter destabilization hit call (SYK) 0 | kinase-Nluc reporter destabilization hit call (TEC) 0 | kinase-Nluc reporter destabilization hit call (TYK2) 0 | kinase-Nluc reporter destabilization hit call (ULK3) 0 | kinase-Nluc reporter destabilization hit call (YES1) 0 | kinase-Nluc reporter destabilization hit call (ZAK) 0 | kinase-Nluc reporter destabilization hit call (ZAP70) 0
0: number of time points (ABL1) | number of time points (AKT1)

O=C(Nc1cc(C(F)(F)F)ccc1N1CCN(Cc2ccccn2)CC1)c1ccc(-c2ccncc2)o1 (10 µM)
inactive: kinase-Nluc reporter destabilization hit call (RET) 0 | kinase-Nluc reporter destabilization hit call [1] 0 | kinase-Nluc reporter destabilization hit call (RIOK1) 0 | kinase-Nluc reporter destabilization hit call (RIPK1) 0 | kinase-Nluc reporter destabilization hit call (RIPK2) 0 | kinase-Nluc reporter destabilization hit call (ROR2) 0 | kinase-Nluc reporter destabilization hit call (RPS6KA1) 0 | kinase-Nluc reporter destabilization hit call (SPHK1) 0 | kinase-Nluc reporter destabilization hit call (SRC) 0 | kinase-Nluc reporter destabilization hit call (STK24) 0 | kinase-Nluc reporter destabilization hit call (STK38) 0 | kinase-Nluc reporter destabilization hit call (SYK) 0 | kinase-Nluc reporter destabilization hit call (TEC) 0 | kinase-Nluc reporter destabilization hit call (TYK2) 0 | kinase-Nluc reporter destabilization hit call (ULK3) 0 | kinase-Nluc reporter destabilization hit call (YES1) 0 | kinase-Nluc reporter destabilization hit call (ZAK) 0 | kinase-Nluc reporter destabilization hit call (ZAP70) 0
0: number of time points (ABL1) | number of time points (AKT1)

Cn1c(=O)c(Oc2ccc(F)cc2F)cc2cnc(NC3CCOCC3)nc21 [R1487 (Hydrochloride)] (10 µM)
0: number of time points (ABL1) | number of time points (AKT1)
inactive: kinase-Nluc reporter destabilization hit call (RET) 0 | kinase-Nluc reporter destabilization hit call [1] 0 | kinase-Nluc reporter destabilization hit call (RIOK1) 0 | kinase-Nluc reporter destabilization hit call (RIPK1) 0 | kinase-Nluc reporter destabilization hit call (RIPK2) 0 | kinase-Nluc reporter destabilization hit call (ROR2) 0 | kinase-Nluc reporter destabilization hit call (RPS6KA1) 0 | kinase-Nluc reporter destabilization hit call (SPHK1) 0 | kinase-Nluc reporter destabilization hit call (SRC) 0 | kinase-Nluc reporter destabilization hit call (STK24) 0 | kinase-Nluc reporter destabilization hit call (STK38) 0 | kinase-Nluc reporter destabilization hit call (SYK) 0 | kinase-Nluc reporter destabilization hit call (TEC) 0 | kinase-Nluc reporter destabilization hit call (TYK2) 0 | kinase-Nluc reporter destabilization hit call (ULK3) 0 | kinase-Nluc reporter destabilization hit call (YES1) 0 | kinase-Nluc reporter destabilization hit call (ZAK) 0 | kinase-Nluc reporter destabilization hit call (ZAP70) 0

CCCS(=O)(=O)Nc1ccc(F)c(C(=O)c2c[nH]c3ncc(Cl)cc23)c1F (10 µM)
0: number of time points (AKT1)
3: number of time points (ABL1)
inactive: kinase-Nluc reporter destabilization hit call (RET) 0 | kinase-Nluc reporter destabilization hit call [1] 0 | kinase-Nluc reporter destabilization hit call (RIOK1) 0 | kinase-Nluc reporter destabilization hit call (RIPK1) 0 | kinase-Nluc reporter destabilization hit call (RIPK2) 0 | kinase-Nluc reporter destabilization hit call (ROR2) 0 | kinase-Nluc reporter destabilization hit call (RPS6KA1) 0 | kinase-Nluc reporter destabilization hit call (SPHK1) 0 | kinase-Nluc reporter destabilization hit call (SRC) 0 | kinase-Nluc reporter destabilization hit call (STK24) 0 | kinase-Nluc reporter destabilization hit call (STK38) 0 | kinase-Nluc reporter destabilization hit call (SYK) 0 | kinase-Nluc reporter destabilization hit call (TEC) 0 | kinase-Nluc reporter destabilization hit call (TYK2) 0 | kinase-Nluc reporter destabilization hit call (ULK3) 0 | kinase-Nluc reporter destabilization hit call (YES1) 0 | kinase-Nluc reporter destabilization hit call (ZAK) 0 | kinase-Nluc reporter destabilization hit call (ZAP70) 0
